The whole screen tested about 52,000 sequences, of which about 210 (0.4%) were called active.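 The calls were made as follows: active = gene whose silencing raises cell survival under the drug, median off-target-corrected z-score across its silencing RNAs 2 or more; inactive = the rest.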 This is one part of the list.
Assay: Resistance to Poly (ADP-Ribose) Polymerase inhibitor: Gene Identification via Genome-wide siRNA Screen
Conditions: mouse BRCA2 R2336H ES cells, olaparib, CellTiter-Glo viability; hits give high values
Outline: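 Genome-wide siRNA screen (3 siRNAs/gene, 20 nM) in mouse ES cells carrying hypomorphic BRCA2 R2336H; olaparib 500 nM added 48 h post-transfection, CellTiter-Glo viability 72 h later. Normalized to plate-median negative control; MAD z-scores, gene median, seed-adjusted.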

Row | Sequence | z-score
1 | GGAAGAACUUCAGAAUGCATT against 1810035L17Rik | inactive: -0.717
2 | GGGAAAGUCGUUGAAAUUUTT against Stx18 | inactive: -0.33
3 | GGAACGGAUACGGUUUCAUTT against Nsep1 | inactive: 0.466
4 | GGAAGUGUUCAAACCAGAGTT against LOC229512 | inactive: -1.89
5 | GGAGUUUGGAACUUCCAACTT against Tcf21 | inactive: -0.297
6 | GGCUCACGAGGAACUAAAUTT against BC037708 | inactive: 0.19
7 | GCCAUUCGAGUUUUAUAUGTT against C330026N02Rik | inactive: -0.366
8 | GCACUAAAGAAGUUACUGCTT against Olfr126 | inactive: 0.647
9 | GGAAACACCAGGUUUAUAUTT against 2610511O17Rik | inactive: -0.781
10 | GGAUUUAGCUAAGAGAGGGTT against Wig1 | inactive: 0.823
11 | GAAUUGGACAACUUUCUCCTT against Olfr8 | inactive: 1.52
12 | CCGCUAACUAAAAAAAUCGTT against Birc4 | inactive: 0.739
13 | GCGUAUGACAUAAAGAUAGTT against Ctbs | inactive: 1.77
14 | GGCCAAAACCACAAAGAAGTT against Rpl36al | inactive: -0.0808
15 | GGAUUAACUCUUGAAAGUUTT against Cd4 | inactive: 0.647
16 | GCCGCCAAGUUUCGAUUCGTT against Htr5b | inactive: 0.863
17 | GGCCUCCAAUAAAGCUCAGTT against AI428795 | inactive: 1.16
18 | GCUGAAUGAUAUGGAACCUTT against Vapa | inactive: -2.62
19 | GGUUUGGUACAUUUGCAUCTT against Olfr616 | inactive: 0.404
20 | GCCUACUUGUGUAUAAAGATT against D15Wsu169e | inactive: -0.309
21 | GCAGGGUGAGUUGUUAAAUTT against 9630025C22 | inactive: 1.09
22 | GGCUGCACACAAUAUGAACTT against Ftsj2 | inactive: 0.739
23 | GCCAGAUUGUGGUCAUGACTT against Olfr365 | inactive: -0.91
24 | CCUCUCUAUCUCUGACAUGTT against Olfr960 | inactive: -1.26
25 | GAGGACAUGGCCAGAUACUTT against Npy | inactive: 0.0419
26 | GCUCAGCUACAAUAUGUUCTT against ICRFP703B1614Q5.5 | inactive: 0.0403

Fetched one by one from the entries so far, 5 records:
Row | Sequence | z-score
24 | CCUCUCUAUCUCUGACAUGTT against Olfr960 | inactive: -1.26
2 | GGGAAAGUCGUUGAAAUUUTT against Stx18 | inactive: -0.33
14 | GGCCAAAACCACAAAGAAGTT against Rpl36al | inactive: -0.0808
16 | GCCGCCAAGUUUCGAUUCGTT against Htr5b | inactive: 0.863
6 | GGCUCACGAGGAACUAAAUTT against BC037708 | inactive: 0.19

Next part:

Row | Sequence | z-score
27 | GGAGCACUGUCCUUAAACATT against Cxcl16 | inactive: -2.19
28 | GCCCAUCACUUAUAGUGGGTT against Usf2 | inactive: 0.227
29 | GGGCCAUGACAGAAUUCCATT against Eraf | inactive: -0.325
30 | GUGAGUUCGAAAAGGGAAUTT against LOC212285 | inactive: 1.09
31 | AACAGAUCUUCUCUGGUCCTT against Klra15 | inactive: -1.44
32 | GGCUCUAUGUUUAUAAUGATT against E030002O03Rik | inactive: -0.0955
33 | CCUGGGAGCCUAUUAUUCUTT against Ndufb10 | inactive: 0.601
34 | CCAGUGACACCUUAAAACCTT against Setbp1 | inactive: 1.27
35 | CCUAAUUUCCCAGCACUUUTT against BC018371 | inactive: 1.16
36 | GGAAAUCAAAGAGAAAGUUTT against Rassf3 | inactive: -0.363
37 | CGGAGAGGAUUUCAUCGAATT against Azgp1 | inactive: 0.0883
38 | CCAGAUUAGGCUAAUAGAATT against Lrsam1 | inactive: -0.178
39 | GGCAACUGACUAUUUAUUATT against Kcnk13 | inactive: 0.135
40 | CCCAUGUGCGAUGAAACUUTT against Nudt3 | inactive: 0.243
41 | GCUCUUACAUAUCAAGCUUTT against 1700011C14Rik | inactive: 0.628
42 | GCGGACGAGUCUCUGUUAGTT against 1600012F09Rik | inactive: 0.719
43 | GGAAUUCAUGAAGUAUAACTT against LOC208943 | inactive: 0.78
44 | GCUUAUUUAAUGCAUCAGGTT against Avil | inactive: 0.326
45 | GGGAAGAGCUAGCACUGAATT against Phox2b | inactive: 0.0968
46 | CCGUUUCAGAUUCCUAUCATT against 4930524B15Rik | inactive: 1.28
47 | GCUUGAUUUUGAAUAACACTT against Tas2r116 | inactive: -0.498
48 | GGAAGAUUCCGACUUUAUUTT against Irs4 | inactive: 0.495
49 | GGGAAAACCUCUUCUGUGUTT against Olfr904 | inactive: 0.618
50 | CGAGAAGUACAAAAGGGAGTT against 1700039D13Rik | inactive: -0.24
51 | GGCUAAAGAGUCCUCGGUGTT against Serpina5 | inactive: -2.02
52 | GCUAAAGCAAUACAUAGUUTT against 5330421F07Rik | inactive: -0.823

Row | Sequence | z-score
53 | GGUCAUAAGAUUAGGGUCATT against Nmnat3 | inactive: -0.682
54 | GGCACCAAAAUCAAUGAAATT against Pcbp3 | inactive: -0.114
55 | GGCCAGUGGAGGAAUAUGATT against 1300017J02Rik | inactive: 1.34
56 | GCUACAUUCAAAUAUGACCTT against Cd207 | inactive: 0.0586
57 | GGUUCUGUUGUGUGAGGAGTT against Imap38 | inactive: 1.1
58 | CCGGAAGCUAUUGACCAUUTT against 5730466P16Rik | inactive: 1.09
59 | GGUGCAGAGUUACACGUGCTT against H2-T10 | inactive: 1.26
60 | GGAUUGUCAUUGACAAAACTT against Slc31a2 | inactive: 1.88
61 | CCAGUACUCGUUUCACUUATT against Mrpl15 | inactive: -1.04
62 | GCCAGCUUUUAGUAUCAACTT against Unc84a | inactive: 2.49
63 | GGAGCUAGCAGAGAUAACCTT against Ube2e3 | inactive: 0.0166
64 | GCAGCAUGGAGUUCACUAUTT against Tapbp | inactive: 0.931
65 | GGUGGUGCUUAAGUCCAUCTT against Cacna1b | inactive: 0.0603
66 | GGAUCUUAAGUCCUAACAUTT against Tacc3 | inactive: -1.9
67 | CGGUAGCCGGUCUUGGUGGTT against Hist2h2aa1 | inactive: -0.63
68 | GGACACUAUCCCAUUUCUATT against 9030221C07Rik | inactive: -1.58
69 | GGUGUUUGGGUACCAGUCUTT against Cyp8b1 | inactive: 0.159
70 | GGAACAACAUCCUAUGCUCTT against Ranbp17 | inactive: -0.153
71 | CGUGACUACACCAUCAAAGTT against Gpr56 | inactive: 0.473
72 | CCUGUGACGAAUUUGAGCGTT against Il13ra1 | inactive: -0.263
73 | GGAAGCAUCAUGGAAAGGCTT against 1810032O08Rik | inactive: -0.25
74 | GUUGGUUUGUUGACCUCUUTT against LOC212285 | inactive: 0.9
75 | CCCUGCUCUCACUUGUUUATT against Olfr643 | inactive: -0.317
76 | GGUUUGACUGGCUACCUAUTT against Galntl2 | inactive: -0.175
77 | GGAAUAUGAAGACAUAGCUTT against Ogt | inactive: -2.33
78 | GGACAACAGUGUAAAAAUCTT against 4930511I11Rik | inactive: -0.186

Row | Sequence | z-score
79 | GGAUACACAAACCAAAAGUTT against 2310015N07Rik | inactive: 1.39
80 | CCUUUGUUCCACAUAAUAATT against V1rc1 | inactive: 0.712
81 | GAUUGUUGCACGGCUGAAGTT against Cxcl12 | inactive: 0.323
82 | GGGAGAGCAAAACUAUUUCTT against Padi6 | inactive: 1.35
83 | GGUGCUUUCCACGAUCAACTT against Tbl2 | inactive: -0.769
84 | CCGCUUUUGUCAAGUUUUCTT against Ddef1 | inactive: -0.0436
85 | GGCGAUACUUGGAAAAAUCTT against Nln | inactive: -1.11
86 | GCCAACAAGCAUUCCAUUGTT against 1110025G12Rik | inactive: -0.611
87 | GCUGUUGUUUGCUAGCAAATT against Lip1 | inactive: 0.127
88 | GGUUCCUGGGAACCUAAGUTT against 2610034E13Rik | inactive: -2.13
89 | GCAAUCCAAAGUUUUAAUCTT against 7-Sep | inactive: -0.301
90 | GGCAGUCAAUAGUGGCCUGTT against Bcor | inactive: -1.6
91 | GGGAUGGCCAUAGAACAGATT against D4Ertd765e | inactive: 0.923
92 | GGGACACAGCUAAAAGCUUTT against C530043G21Rik | inactive: -0.783
93 | GGCCUCUCCACUUGUGAAGTT against Ghitm | inactive: -0.0475
94 | CGGAUCAUUGCCAAUAUCATT against Adam33 | inactive: -0.281
95 | GGCAGUCUUAUAAUUCAUCTT against 6330416L07Rik | inactive: 0.521
96 | GGCAUAAUUCGAGAUAUCATT against B130016O10Rik | inactive: 3.47
97 | GGGUAAAAGGCUUUUUUGUTT against Siat8f | inactive: 1.12
98 | GGUACAACUUUGUGACUUATT against Ckn1 | inactive: 0.158
99 | GGAACUGGUGAUAGGAGUCTT against Olfr513 | inactive: 0.682
100 | GGAGAAAAUCAACAAGAUCTT against Ppp2r2c | inactive: -0.0371
101 | GCAACUUAAUACUAGGUGATT against 5730439E10Rik | inactive: 0.387
102 | CCAUUAAUAUCUCAUGUGATT against Fshr | inactive: 0.741
103 | GGCAGUCUUCUAGUAAGAATT against BC009118 | inactive: 1.97
